From the supplement of paper PMC12819154, “High-throughput peptide-centric local stability assay extends protein–ligand identification to membrane proteins, tissues and bacteria” (Nature Structural & Molecular Biology, 2025)
The other results are listed elsewhere or left out. Most entries show no effect beyond the scatter of the controls.

Amino acid sequences for entries named in this document (tags omitted). A change or cut given only in a name is not applied to a line headed by its entry.
UniProt Q969S2: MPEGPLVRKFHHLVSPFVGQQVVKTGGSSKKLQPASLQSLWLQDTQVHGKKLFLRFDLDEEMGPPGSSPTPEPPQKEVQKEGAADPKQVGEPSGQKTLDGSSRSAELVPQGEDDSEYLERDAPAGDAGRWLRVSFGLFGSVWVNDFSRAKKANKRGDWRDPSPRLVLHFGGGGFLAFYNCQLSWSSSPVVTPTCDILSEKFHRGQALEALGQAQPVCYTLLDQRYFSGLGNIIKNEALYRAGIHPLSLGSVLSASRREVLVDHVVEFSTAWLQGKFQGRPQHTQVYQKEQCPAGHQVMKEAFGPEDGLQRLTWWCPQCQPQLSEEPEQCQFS
UniProt Q92913: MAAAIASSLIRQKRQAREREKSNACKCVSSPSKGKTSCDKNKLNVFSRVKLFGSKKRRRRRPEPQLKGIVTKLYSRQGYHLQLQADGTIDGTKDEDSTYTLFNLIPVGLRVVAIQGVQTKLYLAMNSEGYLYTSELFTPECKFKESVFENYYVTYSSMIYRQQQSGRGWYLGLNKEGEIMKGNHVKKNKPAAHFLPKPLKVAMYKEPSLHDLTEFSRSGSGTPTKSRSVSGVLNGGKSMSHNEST
UniProt Q96DP5: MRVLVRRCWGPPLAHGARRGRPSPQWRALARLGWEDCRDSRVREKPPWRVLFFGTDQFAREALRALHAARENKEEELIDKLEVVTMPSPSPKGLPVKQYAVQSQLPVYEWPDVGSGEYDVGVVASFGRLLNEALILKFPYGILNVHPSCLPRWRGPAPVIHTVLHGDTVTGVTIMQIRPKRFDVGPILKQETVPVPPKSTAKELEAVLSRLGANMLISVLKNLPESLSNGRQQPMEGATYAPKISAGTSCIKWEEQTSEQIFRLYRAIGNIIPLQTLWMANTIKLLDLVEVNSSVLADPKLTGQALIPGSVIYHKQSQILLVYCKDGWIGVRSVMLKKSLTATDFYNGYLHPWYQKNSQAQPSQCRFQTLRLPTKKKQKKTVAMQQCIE
UniProt Q92871: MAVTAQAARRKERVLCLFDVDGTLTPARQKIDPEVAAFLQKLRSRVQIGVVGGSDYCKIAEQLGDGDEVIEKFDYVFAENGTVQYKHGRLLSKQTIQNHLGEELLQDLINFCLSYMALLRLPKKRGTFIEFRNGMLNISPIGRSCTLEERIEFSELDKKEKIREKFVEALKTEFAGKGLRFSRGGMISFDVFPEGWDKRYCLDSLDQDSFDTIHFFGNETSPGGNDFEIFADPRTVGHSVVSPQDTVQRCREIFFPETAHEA
UniProt Q96D70: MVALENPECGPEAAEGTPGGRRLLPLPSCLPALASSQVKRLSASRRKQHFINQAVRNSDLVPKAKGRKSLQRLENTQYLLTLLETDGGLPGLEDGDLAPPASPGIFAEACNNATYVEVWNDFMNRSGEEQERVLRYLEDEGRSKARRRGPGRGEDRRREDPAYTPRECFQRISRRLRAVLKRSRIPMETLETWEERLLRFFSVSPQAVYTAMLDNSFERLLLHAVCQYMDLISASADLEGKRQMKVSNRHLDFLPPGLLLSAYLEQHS
UniProt Q96G03: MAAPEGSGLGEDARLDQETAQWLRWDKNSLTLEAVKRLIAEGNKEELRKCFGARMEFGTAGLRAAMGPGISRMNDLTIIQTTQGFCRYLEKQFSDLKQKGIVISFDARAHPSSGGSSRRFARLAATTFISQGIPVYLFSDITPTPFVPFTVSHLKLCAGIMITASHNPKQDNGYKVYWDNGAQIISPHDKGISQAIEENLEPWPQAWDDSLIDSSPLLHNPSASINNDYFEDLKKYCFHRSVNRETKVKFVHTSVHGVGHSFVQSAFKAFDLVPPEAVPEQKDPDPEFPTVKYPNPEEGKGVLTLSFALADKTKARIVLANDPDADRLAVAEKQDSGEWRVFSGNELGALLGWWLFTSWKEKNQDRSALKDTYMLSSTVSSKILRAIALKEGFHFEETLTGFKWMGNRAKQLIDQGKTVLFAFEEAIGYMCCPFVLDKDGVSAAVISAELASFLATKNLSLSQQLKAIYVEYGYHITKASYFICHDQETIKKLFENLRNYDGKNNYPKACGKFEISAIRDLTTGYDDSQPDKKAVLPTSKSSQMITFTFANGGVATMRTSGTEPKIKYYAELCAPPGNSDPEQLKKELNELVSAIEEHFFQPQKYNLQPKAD
UniProt Q969F1: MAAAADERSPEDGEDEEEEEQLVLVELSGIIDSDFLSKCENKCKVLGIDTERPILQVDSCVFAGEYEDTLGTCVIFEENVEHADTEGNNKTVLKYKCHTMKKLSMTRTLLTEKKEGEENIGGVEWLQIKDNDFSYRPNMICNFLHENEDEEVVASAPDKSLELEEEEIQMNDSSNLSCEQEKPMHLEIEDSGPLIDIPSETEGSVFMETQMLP
UniProt Q969S9: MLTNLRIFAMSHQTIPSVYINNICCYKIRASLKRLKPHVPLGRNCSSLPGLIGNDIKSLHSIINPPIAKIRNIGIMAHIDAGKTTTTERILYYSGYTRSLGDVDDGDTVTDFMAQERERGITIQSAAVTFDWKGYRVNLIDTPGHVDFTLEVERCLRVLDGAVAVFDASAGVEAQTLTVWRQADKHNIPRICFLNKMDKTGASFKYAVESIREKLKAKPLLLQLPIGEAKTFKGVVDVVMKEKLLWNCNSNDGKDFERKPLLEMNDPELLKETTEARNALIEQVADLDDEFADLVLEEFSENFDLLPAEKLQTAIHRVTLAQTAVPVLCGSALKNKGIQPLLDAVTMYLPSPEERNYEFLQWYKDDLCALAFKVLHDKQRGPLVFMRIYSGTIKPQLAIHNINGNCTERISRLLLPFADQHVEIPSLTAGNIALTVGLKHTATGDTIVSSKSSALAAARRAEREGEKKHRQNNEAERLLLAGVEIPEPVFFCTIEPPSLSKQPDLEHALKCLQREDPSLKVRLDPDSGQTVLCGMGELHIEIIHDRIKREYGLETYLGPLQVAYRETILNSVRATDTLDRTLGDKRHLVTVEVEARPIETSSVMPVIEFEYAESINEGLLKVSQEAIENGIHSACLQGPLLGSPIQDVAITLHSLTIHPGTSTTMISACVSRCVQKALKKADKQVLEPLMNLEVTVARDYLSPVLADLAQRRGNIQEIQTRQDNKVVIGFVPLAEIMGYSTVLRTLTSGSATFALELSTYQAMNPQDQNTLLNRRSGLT
UniProt Q96GA7: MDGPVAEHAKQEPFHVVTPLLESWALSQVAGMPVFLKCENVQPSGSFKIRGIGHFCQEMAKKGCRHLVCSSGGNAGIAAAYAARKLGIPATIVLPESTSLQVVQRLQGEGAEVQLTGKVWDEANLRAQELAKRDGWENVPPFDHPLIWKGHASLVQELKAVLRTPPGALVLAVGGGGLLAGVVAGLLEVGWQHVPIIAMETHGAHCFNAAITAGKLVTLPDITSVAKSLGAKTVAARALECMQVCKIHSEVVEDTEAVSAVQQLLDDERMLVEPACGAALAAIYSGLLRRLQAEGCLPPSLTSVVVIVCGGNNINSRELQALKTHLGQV
UniProt Q96B96: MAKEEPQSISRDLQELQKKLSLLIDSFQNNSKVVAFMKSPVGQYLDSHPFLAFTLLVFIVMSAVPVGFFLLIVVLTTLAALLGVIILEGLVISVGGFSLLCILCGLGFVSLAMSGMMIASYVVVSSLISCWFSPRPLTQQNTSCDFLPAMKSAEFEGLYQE

compound: CN[C@@H]1C[C@H]2O[C@@](C)([C@@H]1OC)n1c3ccccc3c3c4c(c5c6ccccc6n2c5c31)C(=O)NC4 [staurosporine]; assay: log2 fold change of tryptic peptide abundance, ligand vs vehicle (limited proteolysis) (log2 ratio); higher = more trypsin-susceptible (destabilized); details: ligand concentration: 20 uM; sample: K562 cleared lysate; digestion: 4 min, 22 C (HT-PELSA RT4min, Orbitrap Astral)

| Target | log2 fold change |
| --- | --- |
| NEIL2 (peptide sequence: FQGRPQHTQVYQK, peptide start residue: 276) (UniProt Q969S2) | 0.41 |
| FGF13 (peptide sequence: SMSHNEST, peptide start residue: 238) (UniProt Q92913) | 0.137 |
| MTFMT (peptide sequence: FPYGILNVHPSCLPR, peptide start residue: 138) (UniProt Q96DP5) | 0.193 |
| PMM1 (peptide sequence: NGMLNISPIGR, peptide start residue: 133) (UniProt Q92871) | 0.23 |
| R3HDM4 (peptide sequence: RREDPAYTPR, peptide start residue: 157) (UniProt Q96D70) | 0.588 |
| PGM2 (peptide sequence: IVLANDPDADRLAVAEK, peptide start residue: 317) (UniProt Q96G03) | -0.315 |
| GTF3C6 (peptide sequence: EGEENIGGVEWLQIK, peptide start residue: 115) (UniProt Q969F1) | -0.0976 |
| GFM2 (peptide sequence: CLQREDPSLK, peptide start residue: 511) (UniProt Q969S9) | 0.443 |
| SDSL (peptide sequence: GHASLVQELK, peptide start residue: 150) (UniProt Q96GA7) | 0.195 |
| TMEM159 (peptide sequence: AKEEPQSISR, peptide start residue: 2) (UniProt Q96B96) | -0.0538 |

No new results follow: an excerpt of the list.

| Target | log2 fold change |
| --- | --- |
| GTF3C6 (peptide sequence: EGEENIGGVEWLQIK, peptide start residue: 115) (UniProt Q969F1) | -0.0976 |
| GFM2 (peptide sequence: CLQREDPSLK, peptide start residue: 511) (UniProt Q969S9) | 0.443 |
